Some of the results follow. These are further read-outs of the screen, such as a control signal, another cell line or another target. No call is given for them. The list favours compounds with an active or inconclusive main result. Words in brackets tell the shape of the fitted curve; partial curves, single points and poor fits give uncertain potencies.
Test: qHTS Assay for Lipid Storage Modulators in Drosophila S3 Cells;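 for cell number change: cells counted by Cell Tracker Red CMTPX staining in the red channel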
Settings: BODIPY lipid droplet fluorescence, 18-24 h; for cell number change: measured here: cell count max response, cells fed with added oleic acid
In short: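 Drosophila S3 cells loaded with oleic acid (400 uM, as added) and compounds at several concentrations; lipid droplets imaged by 488-nm laser-scanning cytometry, 500–530 nm intensity and object ratio to cell channel. Percent activity normalized to 20 uM Triacsin C.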

[1] = measured here: lipid fluorescence (Fed channel) AC50, cells fed with added oleic acid
[2] = measured here: cell number channel AC50, cells fed with added oleic acid

Compound	cell number change	AC50 [1]	AC50 [2]
COc1ccc(N2CCN(C(=O)C3CCN(S(=O)(=O)c4c(C)noc4/C=C/N(C)C)CC3)CC2)cc1	-15.6%	16.4 µM [rising, partial curve]	–
COc1ccc(Cl)cc1S(=O)(=O)NC(C)C(=O)NCc1ccc2c(c1)OCO2 (configuration not stated)	18.3%	–	–
CC1CN(C2CCN(S(=O)(=O)c3ccc(F)cc3)CC2)CC(C)O1 (configuration not stated)	9.81%	1.03 µM [falling, full curve]	–
COc1ccccc1C(=O)NCCC(=O)N1CCN(S(=O)(=O)c2ccccc2C(F)(F)F)CC1	–	6.51 µM [rising, partial curve, poor fit]	4.11 µM [falling, single point]
Oc1c(CN2CCCCC2)cc(COCc2ccccc2)c2cccnc12	-22.5%	6.51 µM [falling, partial curve]	–
Cc1ccc(/C=N/NS(=O)(=O)c2ccc([N+](=O)[O-])cc2)o1	21.9%	16.4 µM [rising, single point]	–
Cc1ccc2cn[nH]c2c1NC(=S)NC(=O)c1ccccc1	15.5%	3.66 µM [falling, single point]	–
O=c1c(Cc2ccc(Cl)cc2Cl)c(O)ccn1Cc1ccc(Cl)cc1	-78.6%	23.1 µM [falling, single point]	29.1 µM [falling, single point]
CC(=O)Nc1cccc(NC(=O)CSc2nc(=O)n(CCN3CCOCC3)c3c2CCCC3)c1	-4.4%	–	–
COc1ccc(CN2C(=O)CCC2(C)C(=O)NC2CCCCC2)c(OC)c1 (configuration not stated)	0.284%	29.1 µM [falling, single point]	–
CCc1ccc(NC(=O)C(=O)NNC(=O)c2cccc(OC)c2)cc1	38.3%	–	25.9 µM [rising, single point]
CCC1(c2ccc(F)cc2)NC(=O)N(CC(=O)Nc2cccnc2Cl)C1=O (configuration not stated)	36.5%	–	29.1 µM [rising, single point]
Cc1cccc(N2CCN(C(=O)c3ccc(NS(=O)(=O)c4c(C)noc4C)cc3)CC2)c1C	45.6%	6.51 µM [falling, single point]	20.6 µM [rising, single point]
O=S1(=O)CCN(OCc2ccc(Cl)cc2)CC1	-27.2%	–	–
O=C(COc1ccc2c(c1)CCC2)NCc1ccccc1	-6.19%	0.58 µM [falling, full curve, poor fit]	–
CC(=O)N1CCN(C(=O)CC2OC(=O)c3ccccc32)CC1 (configuration not stated)	-15.2%	20.6 µM [falling, single point]	–
CCN(CC)C(=O)CC(c1cc(OC)c(OC)c(OC)c1)c1c(OC)cc(OC)c2c(-c3ccccc3)cc(=O)oc12 (configuration not stated)	12.4%	–	2.31 µM [rising, partial curve]
COc1ccc(CCNCC(O)COc2ccc(Cl)cc2)cc1OC (configuration not stated)	10.4%	18.4 µM [rising, partial curve]	–

Laid out differently: 11 of the compounds above.
Compound | cell number change | AC50 [1] | AC50 [2]
Cc1ccc2cn[nH]c2c1NC(=S)NC(=O)c1ccccc1 | 15.5% | 3.66 µM [falling, single point] | –
O=c1c(Cc2ccc(Cl)cc2Cl)c(O)ccn1Cc1ccc(Cl)cc1 | -78.6% | 23.1 µM [falling, single point] | 29.1 µM [falling, single point]
CC(=O)Nc1cccc(NC(=O)CSc2nc(=O)n(CCN3CCOCC3)c3c2CCCC3)c1 | -4.4% | – | –
COc1ccc(CN2C(=O)CCC2(C)C(=O)NC2CCCCC2)c(OC)c1 (configuration not stated) | 0.284% | 29.1 µM [falling, single point] | –
CCc1ccc(NC(=O)C(=O)NNC(=O)c2cccc(OC)c2)cc1 | 38.3% | – | 25.9 µM [rising, single point]
CCC1(c2ccc(F)cc2)NC(=O)N(CC(=O)Nc2cccnc2Cl)C1=O (configuration not stated) | 36.5% | – | 29.1 µM [rising, single point]
Cc1cccc(N2CCN(C(=O)c3ccc(NS(=O)(=O)c4c(C)noc4C)cc3)CC2)c1C | 45.6% | 6.51 µM [falling, single point] | 20.6 µM [rising, single point]
O=S1(=O)CCN(OCc2ccc(Cl)cc2)CC1 | -27.2% | – | –
O=C(COc1ccc2c(c1)CCC2)NCc1ccccc1 | -6.19% | 0.58 µM [falling, full curve, poor fit] | –
CC(=O)N1CCN(C(=O)CC2OC(=O)c3ccccc32)CC1 (configuration not stated) | -15.2% | 20.6 µM [falling, single point] | –
CCN(CC)C(=O)CC(c1cc(OC)c(OC)c(OC)c1)c1c(OC)cc(OC)c2c(-c3ccccc3)cc(=O)oc12 (configuration not stated) | 12.4% | – | 2.31 µM [rising, partial curve]

Following part

Compound	cell number change	AC50 [1]	AC50 [2]
CCOCCCNC(=O)C1CC(=O)N(CCc2ccccc2)C1 (configuration not stated)	20.6%	–	–
CCOc1ccc(NS(=O)(=O)c2ccc(C(=O)NCc3ccncc3)cc2)cc1	48%	7.31 µM [rising, partial curve]	7.31 µM [rising, partial curve]
CN1CCCN(C(=O)c2cccc(Br)c2)CC1	4.4%	29.1 µM [rising, single point]	–
COc1ccc2nc(NC(=O)c3ccc([N+](=O)[O-])o3)sc2c1	-18.4%	6.51 µM [falling, single point]	–
COC(=O)c1c(NC(=O)C2CCCCC2C(=O)O)sc2c1CCCCC2 (configuration not stated)	32.2%	–	1.84 µM [rising, partial curve, poor fit]
O=C(Nc1ccc([N+](=O)[O-])cc1)c1ccc(S(=O)(=O)N2CCCC2)cc1	162%	29.1 µM [falling, single point]	–
Cc1ccc(CN(C)CC(=O)Nc2cccc([N+](=O)[O-])c2)o1	6.84%	6.51 µM [falling, single point]	7.31 µM [falling, partial curve, poor fit]
Cc1ccc(S(=O)(=O)N/N=C\c2ccc([N+](=O)[O-])o2)cc1C	-9.19%	–	–
Cc1ccc(NC(=O)C2CCCN(C3=NS(=O)(=O)c4ccccc43)C2)c(O)c1 (configuration not stated)	-7.96%	5.17 µM [falling, partial curve, poor fit]	–
COc1ccccc1N=C(C)C1=C(O)CSC1=O	59.1%	–	18.4 µM [rising, single point]
Cn1c(=O)c2nc3ccccc3nc2n(C)c1=O	20.3%	14.6 µM [rising, partial curve, poor fit]	–
CCn1c(C(=O)N2CCC(Cc3ccccc3)CC2)cc2sccc21	-10.9%	1.84 µM [falling, single point]	–
CCNC(=O)COC(=O)C1C(C(=O)OCC)=C(C)NC(C)=C1C(=O)OCC	32.8%	4.11 µM [rising, single point]	14.6 µM [rising, partial curve, poor fit]
Cc1ccccc1NC(=O)c1c([N+](=O)[O-])cnn1C	18.4%	–	–
Cn1c(Cn2nnc3ccccc32)nnc1SCC(N)=O	6.54%	29.1 µM [falling, single point]	–
CCOc1ccc(-c2[nH]ncc2Oc2ccccc2OCC)c(O)c1	-65.5%	20.6 µM [falling, single point]	29.1 µM [falling, single point]
C[C@H]1O[C@@H](O[C@H]2[C@@H](O)C[C@H](O[C@H]3[C@@H](O)C[C@H](O[C@H]4CC[C@@]5(C)[C@H](CC[C@@H]6[C@@H]5C[C@@H](O)[C@]5(C)[C@@H](C7=CC(=O)OC7)CC[C@]65O)C4)O[C@@H]3C)O[C@@H]2C)C[C@H](O)[C@@H]1O	-21.8%	3.66 µM [rising, full curve, poor fit]	–
CCc1nc2ccccc2c(C(=O)Oc2ccc(C(=O)OC)cc2)c1C	-35.8%	10.3 µM [rising, partial curve]	–

— PubChem BioAssay AID2685 (National Center for Advancing Translational Sciences (NCATS), 2010)
